HELM strings list residues between dots; [ac] is acetyl, [am] amide, other brackets name non-standard units.

This data set in a line: general procedure: hybrid (solid and solution phase) peptide synthesis; 2-chlorotritylchloride resin (100-200 mesh, 1% DVB; loading 1.51 mmol/g); TBTU/DIPEA; HATU/DIPEA for beta-ACPC and for macrocyclization. The conditions noted are these: whole synthesis; for final HPLC purity / isolated yield: scale of the general procedure 0.190 mmol (8, 9), 0.095 mmol (10); for isolated yield: overall, on resin loading.

“PEPTIDE1{R.G.D.[ACPC_1R2S].V}$PEPTIDE1,PEPTIDE1,1:R1-5:R2$$$V2.0”: the isolated mass was found to be 11 mg, the “final HPLC purity” value is “HPLC purity = 99%” and the isolated yield result is listed as “overall yield 9%”.
The matching figures for “PEPTIDE1{R.G.D.[ACPC_1S2R].V}$PEPTIDE1,PEPTIDE1,1:R1-5:R2$$$V2.0”: 13 mg, “HPLC purity = 96%” and “overall yield 10%”.
As for “PEPTIDE1{[isoAsp].G.R.[ACPC_1R2S].V}$PEPTIDE1,PEPTIDE1,1:R1-5:R2$$$V2.0”, the isolated mass came out at 9.97 mg, the “final HPLC purity” value is given as “HPLC purity > 99%” and the isolated yield came to 16% overall yield.
